Some of the results follow.

By UniProt entry, the sequences of proteins in these tests, tags left out.
UniProt Q0JBA9, entry or part of it: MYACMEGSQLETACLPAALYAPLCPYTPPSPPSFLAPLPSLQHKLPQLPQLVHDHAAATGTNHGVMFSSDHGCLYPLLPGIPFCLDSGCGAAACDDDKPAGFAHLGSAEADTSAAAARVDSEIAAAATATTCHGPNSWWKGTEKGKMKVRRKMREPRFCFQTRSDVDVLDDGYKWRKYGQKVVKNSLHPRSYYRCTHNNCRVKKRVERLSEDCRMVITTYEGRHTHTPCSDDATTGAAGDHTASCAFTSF

This test has as its target OsWRKY34 (Oryza sativa, UniProt Q0JBA9 1-250). The test can be described thus: protein-binding microarray (RPBM); PBS, 2% BSA, 51.3 ng/ul salmon testes DNA, 50 uM zinc acetate, 200 nM TF, 25 C, 1 h; high values mean tight binding. Conditions: protein: recombinant; tags: N-terminal polyhistidine and DsRed monomer fusion (pET32a); label: CyDye5-dUTP incorporated in the synthesized complementary strand; 3' TTTTT single-stranded linker to array surface; dsDNA, one strand shown. The method, boiled down: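 Transcription factors were each fused at the N-terminus to a polyhistidine tag plus DsRed and expressed in E. coli BL21-CodonPlus before Ni–NTA purification. Binding to a double-stranded custom Agilent array was carried out with 200 nM protein at 25 °C for 1 h in PBS, 2% BSA, salmon testes DNA and 50 µM zinc acetate. The binding signal is per-feature fluorescence intensity, in arbitrary units, on an Axon 4000B scanner.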
Consider “CCGTTCTCCCACCAGTCCATTGCCGCTGGTGGCAATCTTCCGGAGTCACCTAGTGCAG”, for which the binding signal was 8090 fluorescence intensity (a.u.).
Under “TCTCATACATCATCGTTCATACCTCTTCCTAACTAACCAGCGGAGTCACCTAGTGCAG” stands 9550 fluorescence intensity (a.u.); under “CGTCGTCTCCCTCGTCTCCGCCCACTGCTCCACCACACACCGGAGTCACCTAGTGCAG”, 8180 fluorescence intensity (a.u.).
Then “CTCCACCTCCACCGTCGCTCGCTCCGGTTTCGTTGCTAGTCGGAGTCACCTAGTGCAG”, with 8630 fluorescence intensity (a.u.); and “AGCTACGGGTATACCTTCTTTCTCTGTCTTTCTTTGCTTCCGGAGTCACCTAGTGCAG”, with 9000 fluorescence intensity (a.u.); and “AATAGGGCATGAACCCCAGCCATTTCTCCTCATCCCACACCGGAGTCACCTAGTGCAG”, with 63200 fluorescence intensity (a.u.).
Then “TGGGGCTTTTTTTTCATCGGTTGTGCTTGACTCAGATACGCGGAGTCACCTAGTGCAG”, with 15700 fluorescence intensity (a.u.); and “CGGGAATTTATCGTTGGTCTCTCCATGACTCCGTTTATACCGGAGTCACCTAGTGCAG”, with 8760 fluorescence intensity (a.u.).
Take “TCGTTTTTCTCTTTAGTGTGTGTGTGTTGCGTTTTTGCAACGGAGTCACCTAGTGCAG”: the binding signal is 10300 fluorescence intensity (a.u.).
“TTCCTACGCAGCCTCGACCGCGTGCCGTCCGGCCTGCACACGGAGTCACCTAGTGCAG”: the binding signal is 8460 fluorescence intensity (a.u.).
Then “TGACTACACATATACAACGCCCATCCTCTGTCGATCTCCTCGGAGTCACCTAGTGCAG”, with 8380 fluorescence intensity (a.u.); and “ACGCCGCGCCTCCACATCCGCTCCACCCGCCGCCTCTCACCGGAGTCACCTAGTGCAG”, with 9360 fluorescence intensity (a.u.).
Under “CAAACCCCGCGCCGACGGGCGTCCTCCTCACCGACATTTCCGGAGTCACCTAGTGCAG” stands 9700 fluorescence intensity (a.u.).
Regarding “AAGACCGTTCCACCCACACGTCTCCACACGCTTAGGGCCTCGGAGTCACCTAGTGCAG”, the binding signal was 9150 fluorescence intensity (a.u.).
Under “TGTTATTTTGTGTAGTTTGGTTGGTCTGTTTGCTTCTATTCGGAGTCACCTAGTGCAG” stands 15200 fluorescence intensity (a.u.); under “GAATCATTTAAACCTAATTGCGCCATGATTTGACAATGTACGGAGTCACCTAGTGCAG”, 9330 fluorescence intensity (a.u.).
On to “TCCCCGGTTCTCGAGTCCTTTCCGTCCAATGCAGCCGCCTCGGAGTCACCTAGTGCAG”, for which the binding signal is 8340 fluorescence intensity (a.u.).
Under “AACAAGCAGCATTCTAATTTGATCATCAACCAGCGAAATTCGGAGTCACCTAGTGCAG” stands 8550 fluorescence intensity (a.u.).
Under “CTCCAATGCCGTTCACATGATCTCACTCTCTCTCGCTCTCCGGAGTCACCTAGTGCAG” stands 8070 fluorescence intensity (a.u.); under “GGTCAAACATTAAATAAAAAGTCAACGGCGTCATACATTACGGAGTCACCTAGTGCAG”, 11400 fluorescence intensity (a.u.).
Then “TTTCCGTCACATCGTTCCAATTTCAACCAAACTTTCAATTCGGAGTCACCTAGTGCAG”, with 8590 fluorescence intensity (a.u.); and “GGTGCGCGGGCGGGAGGTATCGGCGGTGGAGGCTGGTCGTCGGAGTCACCTAGTGCAG”, with 10700 fluorescence intensity (a.u.).
As to “GCTCTTGCAGTTTGATTGCTGCTCTCGTTGGTTAATTAACCGGAGTCACCTAGTGCAG”, the binding signal is 8680 fluorescence intensity (a.u.).
Under “GCTGTACCAGTACTGACCGGGGTGGGGTGGCGGGAGCGGACGGAGTCACCTAGTGCAG” stands 14600 fluorescence intensity (a.u.); under “CCCAACGAATTTACGTACGTCTCGCTCTGTTGAGTCTTTACGGAGTCACCTAGTGCAG”, 9140 fluorescence intensity (a.u.).
Under “CGCGGGTGACGCGAGAATATTCCGAGTTCATATCCTTCATCGGAGTCACCTAGTGCAG” stands 9290 fluorescence intensity (a.u.); under “AACTTATTCCTCCCTATATTCCGCTCTTTTTCTCCTTTCCCGGAGTCACCTAGTGCAG”, 8370 fluorescence intensity (a.u.).
Under “ATAGTTGACCAATTTCGGCTAAAAAATTCCTACTACTATTCGGAGTCACCTAGTGCAG” stands 10300 fluorescence intensity (a.u.); under “AACTTCCGGTCTGTGCACACACGCGCGCGGCTAGCAGGCACGGAGTCACCTAGTGCAG”, 8360 fluorescence intensity (a.u.).
As to “TGGTGCTGATCAAATTCTATTTCTAGACCTACTTAATTAACGGAGTCACCTAGTGCAG”, the binding signal was 8080 fluorescence intensity (a.u.).
Under “ATTGTGGGTTTCCGTGTCCGACGTTTAAAATAAGACGAAGCGGAGTCACCTAGTGCAG” stands 8170 fluorescence intensity (a.u.).
Under “TAATTTTGAAGTTGACTTTGATGTTTTTTCCAACACAGATCGGAGTCACCTAGTGCAG” stands 8360 fluorescence intensity (a.u.); under “AATATTTTATATTTCTTTTTTTATATCACAGCCATCTCTTCGGAGTCACCTAGTGCAG”, 8660 ± 864 fluorescence intensity (a.u.).
As to “GATTTACCATTGAATTTGTCACATTCTACAATATACCATCCGGAGTCACCTAGTGCAG”, the binding signal is 8310 fluorescence intensity (a.u.).
Then “CATAGTTGCTACTCCCTATTAATACATCCCATCTCTTCCCCGGAGTCACCTAGTGCAG”, with 10900 fluorescence intensity (a.u.).
Under “TGTGTCATCCCAGTCTCTAAACTTGCAGATCACTCGTTTACGGAGTCACCTAGTGCAG” stands 8640 fluorescence intensity (a.u.).
Then “GCCATCCCGCTCGAACGCCGTCTTCTTGCTGCCCCAAAGGCGGAGTCACCTAGTGCAG”, with 11000 fluorescence intensity (a.u.).
On to “ACATAAGTTACTAACTGCTGCTTTTTTTTCTGAAGACTACCGGAGTCACCTAGTGCAG”, for which the binding signal was 8350 fluorescence intensity (a.u.).
Then “AATGTATGACGCCGTTGACTTTTTGCCCAACGTTTGACCACGGAGTCACCTAGTGCAG”, with 38700 fluorescence intensity (a.u.); and “ACCGTTGCAATTACTTATTCGTTTCCTCCTTTCAAAATATCGGAGTCACCTAGTGCAG”, with 8700 fluorescence intensity (a.u.).
Then “ACAAATTTACCCAAAAAAAATTCGGTTTGTATTTTTTTTACGGAGTCACCTAGTGCAG”, with 9100 fluorescence intensity (a.u.); and “ATCCCCATCTCGCCATAGACGCTAACCTATGTCCCTTCTCCGGAGTCACCTAGTGCAG”, with 9800 fluorescence intensity (a.u.).

Values taken from PMC7819943, “Rice protein-binding microarrays: a tool to detect cis-acting elements near promoter regions in rice”.
